Data reported in article PMC9271913.
These are yes or no findings as the source states them, for the method shown. Binding seen in cells or lysates may run through a third protein. These calls come from enrichment with a bait or labelling near it, and not all partners need be listed.

T1: Retention in endoplasmic reticulum 1 (Rer1), mouse (mouse (endogenous in brain)) (UniProt Q9CQU3)
T1 sequence: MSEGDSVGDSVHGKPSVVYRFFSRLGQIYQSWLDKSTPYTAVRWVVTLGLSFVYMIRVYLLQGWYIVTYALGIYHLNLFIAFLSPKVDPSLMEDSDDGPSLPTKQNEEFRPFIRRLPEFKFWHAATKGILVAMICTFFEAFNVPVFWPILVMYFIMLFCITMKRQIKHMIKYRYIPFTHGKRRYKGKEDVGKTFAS

B1: Rtn3 (protein, UniProt Q9ES97 1-964)
chain: MAESSAATQSPSVSSSSSGAEPSALGGGGGSPGACPALGAKSCGSSCADSFVSSSSSQPVSIFSTSQAGLSSLCSDEPPSKSMTSSFLSSSEIHNPDPTTPLGEKSETLGSQFVLAKGKDPLVLLDKKKLDSPQGTNKDRVDAPVSLATGIPCSHPSIPDSFPEQPAFLSKEIGPAEEWVVKDQEPKNPNKVPDGEDRSALDFGQSKAEHICTYSLSPSELPVASVEKDSPESPFEVIIDKATFDREFKDLYKENPNDLGGWAAHGDRESPADLLEMNDKLFPLRNKEAGRYPSSVLLGRQFSHTTAALEEVSRCVNDMHNFTNEILTWDLDPQAKQQANKTSCTTESTGLDRSELRSEIPVINLKTNPQQKMPVCSFNGSTPITKSTGDWTEAFTEGKPVRDYLSSTKEAGGNGVPGSSQLHSELPGSMPEKWVSGSGAATVEVTLPNLRGAWPNSVMGEVTEVDSSGESDDTVIEDITEKPDSLPSAAAKTSEREIKETPSRETVRSEMCENSEQPQAQPETPTQKSLEGEVASQVPNTLNEVTPEKLDMTNNPKVCSAAPPSVLNETGFSLTVPASAKLESLLGKYVEDTDGSSPEDLMAVLTGAEEKGIVDKEEGDVLEAVLEKIADFKNTLPVELLHESELSGSETKNIKSKYSEDSRETTGGAPTMSPDLEQEQLTIRAIKELGERQAEKVQDEGISSGGKLKQTFAPQSGPQSSSDILEHTDVKTGSDLGIPKNPTIIKNTRIDSISSLTKTEMVNKNVLARLLSDFPVHDLIFWRDVKKTGFVFGTTLIMLLSLAAFSVISVVSYLILALLSVTISFRVYKSVIQAVQKSEEGHPFKAYLDVDITLSSEAFHNYMNAAMVHVNKALKLIIRLFLVEDLVDSLKLAVFMWLMTYVGAVFNGITLLILAELLVFSVPIVYEKYKTQIDHYVGIARDQTKSIVEKIQAKLPGIAKKKAE
B2: WD repeat-containing protein 37 isoform X2 (protein, UniProt Q8CBE3 1-496)
chain: MPTESGSCSTARQAKQKRKSHSLSIRRTNSSEQERTGLPREMLEGQDSKLPSSVRSTLLELFGQIEREFENLYIENLELRREIDTLNERLAGEGQAIDGAELSKGQLKTKASHSTSQLSQKLKTTYKASTSKIVSSFKTTTSRAICQLVKEYIGHRDGIWDVSVTRTQPIVLGTASADHTALLWSIETGKCLVKYAGHVGSVNSIKFHPSEQLALTASGDQTAHIWRYVVQLPTPQPVADTSQQISGEDEIECSDKDEPDIDGDVSSDCPTVRVPLTSLKSHQGVVIAADWLVGGKQVVTASWDRTANLYDVETSELVHSLTGHDQELTHCCTHPTQRLVVTSSRDTTFRLWDFRDPSIHSVNVFQGHTDTVTSAVFTVGDNVVSGSDDRTVKVWDLKNMRSPIATIRTDSAINRINVCVGQKIIALPHDNRQVRLFDMSGVRLARLPRSSRQGHRRMVCCSAWSEDHPICNLFTCGFDRQAIGWNINIPALLQEK
B3: Rtn4 (protein, UniProt Q99P72 1-1162)
chain: MEDIDQSSLVSSSADSPPRPPPAFKYQFVTEPEDEEDEEDEEEEEDDEDLEELEVLERKPAAGLSAAPVPPAAAPLLDFSSDSVPPAPRGPLPAAPPTAPERQPSWERSPAASAPSLPPAAAVLPSKLPEDDEPPARPPAPAGASPLAEPAAPPSTPAAPKRRGSGSVDETLFALPAASEPVIPSSAEKIMDLKEQPGNTVSSGQEDFPSVLFETAASLPSLSPLSTVSFKEHGYLGNLSAVASTEGTIEETLNEASRELPERATNPFVNRESAEFSVLEYSEMGSSFNGSPKGESAMLVENTKEEVIVRSKDKEDLVCSAALHNPQESPATLTKVVKEDGVMSPEKTMDIFNEMKMSVVAPVREEYADFKPFEQAWEVKDTYEGSRDVLAARANMESKVDKKCFEDSLEQKGHGKDSESRNENASFPRTPELVKDGSRAYITCDSFSSATESTAANIFPVLEDHTSENKTDEKKIEERKAQIITEKTSPKTSNPFLVAIHDSEADYVTTDNLSKVTEAVVATMPEGLTPDLVQEACESELNEATGTKIAYETKVDLVQTSEAIQESIYPTAQLCPSFEEAEATPSPVLPDIVMEAPLNSLLPSTGASVAQPSASPLEVPSPVSYDGIKLEPENPPPYEEAMSVALKTSDSKEEIKEPESFNAAAQEAEAPYISIACDLIKETKLSTEPSPEFSNYSEIAKFEKSVPDHCELVDDSSPESEPVDLFSDDSIPEVPQTQEEAVMLMKESLTEVSETVTQHKHKERLSASPQEVGKPYLESFQPNLHITKDAASNEIPTLTKKETISLQMEEFNTAIYSNDDLLSSKEDKMKESETFSDSSPIEIIDEFPTFVSAKDDSPKEYTDLEVSNKSEIANVQSGANSLPCSELPCDLSFKNTYPKDEAHVSDEFSKSRSSVSKVPLLLPNVSALESQIEMGNIVKPKVLTKEAEEKLPSDTEKEDRSLTAVLSAELNKTSVVDLLYWRDIKKTGVVFGASLFLLLSLTVFSIVSVTAYIALALLSVTISFRIYKGVIQAIQKSDEGHPFRAYLESEVAISEELVQKYSNSALGHVNSTIKELRRLFLVDDLVDSLKFAVLMWVFTYVGALFNGLTLLILALISLFSIPVIYERHQAQIDHYLGLANKSVKDAMAKIQAKIPGLKRKAE
B4: Acyl-CoA dehydrogenase family member 9, mitochondrial (protein, UniProt Q8JZN5 42-625)
chain: SFAKELFLGNIEQKGVFPFPEVSQHELSEINQFVGPLEKFFTEEVDSRKIDQEGKIPVDTLEKLKSLGLFGIQVPEEYGGLGLSNTMYARLGEIISLDASITVTLAAHQAIGLKGIILVGNEEQKAKYLPKLSSGEHIAAFCLTEPASGSDAASIQTRATLSEDKKYFILNGSKVWITNGGLANIFTVFAKTEVVDSDGSKTDKMTAFIVERDFGGITNGKPEDKLGIRGSNTCEVHFENTRVPVENVLGEVGGGFKVAMNILNSGRFSMGSAVAGMLKKLIELTAEYACTRKQFNRNLSEFGLIQEKFALMAQKAYVMESMAYLTSGMLDQPGFPDCSIEAAMVKVFSSEAAWQCVSEALQILGGSGYMKDYPYERMLRDARILLIFEGTNEILRLFIALTGLQHAGRILTSRIKELKSGNVTTVMETIGRKLRDSLGRTVDLGLTGDLGVVHPSLGDSANKLEENVHYFGRTVETLLLRFGKNIVEEQLVLKRVANILINLYGMTAVLSRASRSIRIGLRNHDHEVLLANMFCVEAYFQNLFSLSQLDKNAPENLDEQIKKVSRQILEKRAYICAHPLDRAS
B5: Canx (protein, UniProt P35564 21-591)
chain: HDGHDDDAIDIEDDLDDVIEEVEDSKSKSDASTPPSPKVTYKAPVPTGEVYFADSFDRGSLSGWILSKAKKDDTDDEIAKYDGKWEVDEMKETKLPGDKGLVLMSRAKHHAISAKLNKPFLFDTKPLIVQYEVNFQNGIECGGAYVKLLSKTAELSLDQFHDKTPYTIMFGPDKCGEDYKLHFIFRHKNPKTGVYEEKHAKRPDADLKTYFTDKKTHLYTLILNPDNSFEILVDQSVVNSGNLLNDMTPPVNPSREIEDPEDRKPEDWDERPKIADPDAVKPDDWDEDAPSKIPDEEATKPEGWLDDEPEYIPDPDAEKPEDWDEDMDGEWEAPQIANPKCESAPGCGVWQRPMIDNPNYKGKWKPPMIDNPNYQGIWKPRKIPNPDFFEDLEPFKMTPFSAIGLELWSMTSDIFFDNFIISGDRRVVDDWANDGWGLKKAADGAAEPGVVLQMLEAAEERPWLWVVYILTVALPVFLVILFCCSGKKQSNAMEYKKTDAPQPDVKDEEGKEEEKNKRDEEEEEEKLEEKQKSDAEEDGVTGSQDEEDSKPKAEEDEILNRSPRNRKPRRE

Each binder was assayed against T1, Retention in endoplasmic reticulum 1 (Rer1), mouse (mouse (endogenous in brain)) (assay: affinity purification with mass spectrometry; anti-RER1 immunoprecipitation of hippocampus lysates (gentle RIPA lysis buffer) of PTZ-induced Nedd4-2+/- and wild-type mice, LC-MS/MS; IgG-precipitated proteins subtracted; proteins present in all four replicates of a group defined as positive).

| binding | Binder |
| --- | --- |
| binds | B1 |
| binds | B2 |
| binds | B3 |
| binds | B4 |
| binds | B5 |
